{"source": "PubChem BioAssay AID180", "about": "(DTP/NCI, 2004)", "system": "BDF1 mice, Adenocarcinoma 755 s.c., tumor weight T/C", "assay": "NCI In Vivo Anticancer Drug Screen. Data for tumor model Adenocarcinoma 755 (subcutaneous) in B6D2F1 (BDF1) mice", "conditions": "T/C endpoint: mean tumor weight, higher T/C = larger tumour; for T/C: evaluated on day 12", "outline": "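Tumor-bearing mice receive test compound while controls get vehicle alone. Antitumor effect is scored from survival or tumor dimensions as a T/C quotient.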", "key": {"[1]": {"conditions": "dose: 55.0 mg/kg/injection, schedule: Q01DX011 (ip), vehicle: saline"}, "[2]": {"conditions": "dose: 400.0 mg/kg/injection, schedule: Q01DX011 (ip), vehicle: saline"}, "[3]": {"conditions": "dose: 50.0 mg/kg/injection, schedule: Q01DX011 (ip), vehicle: carboxymethylcellulose (CMC)"}, "[4]": {"conditions": "dose: 50.0 mg/kg/injection, schedule: Q01DX011 (ip), vehicle: other"}, "[5]": {"conditions": "dose: 100.0 mg/kg/injection, schedule: Q01DX011 (ip), vehicle: other"}, "[6]": {"conditions": "dose: 200.0 mg/kg/injection, schedule: Q01DX011 (ip), vehicle: other"}}, "note": "The list shows only some results of the screen, not a fair sample: it gathers tests that were run many times, whatever their T/C, doses with no T/C, and many T/C values between a quarter and a half above the control. Further doses and runs are listed elsewhere. T/C: endpoint of the treated group in % of that of the vehicle group. Schedule codes are those of the source, taken here to give the interval after Q, in days (D) or hours (H), and the number of doses after X. Some T/C values carry the count of animals alive at the toxicity check (mostly the fifth day); without a count, all were alive then. Some entries hold several experiments; their values stand side by side, smallest first. Some doses have a count of surviving animals in place of a T/C: the source files T/C as zero there, which appears to mark a toxic dose or a test without result, not a measured value. Counts of survivors are from the toxicity check (mostly the fifth day) where no day follows; animals may have died later. Some schedules carry Z or #; the key to these is not given."}
{"smiles": "C[C@]12C[C@H](O)[C@H]3[C@@H](CCC4=CC(=O)CC[C@@]43C)[C@@H]1CC[C@@H]2C(=O)CO", "values": [{"measurement": "survivor count", "setting": "dose: 160.0 mg/kg/injection, schedule: Q01DX011 (oral), vehicle: steroid suspending solution", "result": "4 of 10"}, {"measurement": "survivor count", "setting": "dose: 200.0 mg/kg/injection, schedule: Q01DX011 (oral), vehicle: steroid suspending solution", "result": "3 of 10"}, {"measurement": "survivor count", "setting": "dose: 200.0 mg/kg/injection, schedule: Q#A X022 (sc), vehicle: steroid suspending solution", "result": "1 of 10"}, {"measurement": "survivor count", "setting": "dose: 320.0 mg/kg/injection, schedule: Q01DX011 (iv), vehicle: steroid suspending solution", "result": "6 of 10"}, {"measurement": "survivor count", "setting": "dose: 400.0 mg/kg/injection, schedule: Q#A X022 (sc), vehicle: steroid suspending solution", "result": "1 of 10"}, {"measurement": "survivor count", "setting": "dose: 460.0 mg/kg/injection, schedule: Q01DX011 (im), vehicle: steroid suspending solution", "result": "5 of 10"}, {"measurement": "survivor count", "setting": "dose: 460.0 mg/kg/injection, schedule: Q01DX011 (ip), vehicle: steroid suspending solution", "result": "0 of 10"}, {"measurement": "survivor count", "setting": "dose: 460.0 mg/kg/injection, schedule: Q01DX011 (sc), vehicle: steroid suspending solution", "result": "5 of 10"}, {"measurement": "survivor count", "setting": "dose: 640.0 mg/kg/injection, schedule: Q01DX011 (im), vehicle: steroid suspending solution", "result": "5 of 10"}, {"measurement": "survivor count", "setting": "dose: 640.0 mg/kg/injection, schedule: Q01DX011 (ip), vehicle: steroid suspending solution", "result": "0 of 10"}, {"measurement": "survivor count", "setting": "dose: 640.0 mg/kg/injection, schedule: Q01DX011 (sc), vehicle: steroid suspending solution", "result": "5 of 10"}, {"measurement": "survivor count", "setting": "dose: 800.0 mg/kg/injection, schedule: Q01DX011 (oral), vehicle: steroid suspending solution", "result": "3 of 10"}, {"measurement": "survivor count", "setting": "dose: 960.0 mg/kg/injection, schedule: Q01DX011 (oral), vehicle: steroid suspending solution", "result": "4 of 10"}]}
{"smiles": "Cn1cnc2nc[nH]c2c1=S", "values": [{"measurement": "survivor count", "setting": "dose: 225.0 mg/kg/injection, schedule: Q01DX011 (ip), vehicle: methylcellulose (MC)", "result": "4 of 10"}]}
{"smiles": "Cc1cnc(SCc2ccccc2)[nH]c1=O", "values": [{"measurement": "T/C", "setting": "dose: 62.0 mg/kg/injection, schedule: Q01DX011 (ip), vehicle: methylcellulose (MC)", "result": "131 % of control"}]}
{"smiles": "CC(=O)Nc1c(Cl)c(Cl)c2c(c1Cl)Cc1cc(Cl)ccc1-2", "values": [{"measurement": "survivor count", "setting": "[1]", "result": "6 of 10"}, {"measurement": "survivor count", "setting": "dose: 110.0 mg/kg/injection, schedule: Q01DX011 (ip), vehicle: acetone", "result": "3 of 10"}, {"measurement": "survivor count", "setting": "dose: 450.0 mg/kg/injection, schedule: Q01DX011 (ip), vehicle: saline", "result": "2 of 10"}, {"measurement": "survivor count", "setting": "dose: 900.0 mg/kg/injection, schedule: Q01DX011 (ip), vehicle: other", "result": "0 of 10"}]}
{"smiles": "CC[C@]1(O)C[C@H]2CN(CCc3c([nH]c4ccccc34)[C@@](C(=O)OC)(c3cc4c(cc3OC)N(C=O)[C@H]3[C@@](O)(C(=O)OC)[C@H](OC(C)=O)[C@]5(CC)C=CCN6CC[C@]43[C@@H]65)C2)C1", "values": [{"measurement": "survivor count", "setting": "dose: 0.5 mg/kg/injection, schedule: Q01DX011 (ip), vehicle: saline", "result": "5 of 10"}]}
{"smiles": "Cc1cn(C2OC(CO)C(O)C2O)c(=O)[nH]c1=O", "note": "(stereo unspecified)", "values": [{"measurement": "T/C", "setting": "dose: 250.0 mg/kg/injection, schedule: Q01DX011 (ip), vehicle: saline", "result": "136 % of control"}]}
{"smiles": "COC1=C(N)C(=O)c2nc(-c3nc(C(=O)O)c(C)c(-c4ccc(OC)c(OC)c4O)c3N)ccc2C1=O", "values": [{"measurement": "survivor count", "setting": "dose: 25.0 micrograms/kg/injection, schedule: Q01DX011 (ip), vehicle: water", "result": "6 of 10"}]}
{"smiles": "CC(=O)NCCSC(=O)C(=O)SCCNC(C)=O", "values": [{"measurement": "T/C", "setting": "dose: 100.0 mg/kg/injection, schedule: Q01DX011 (ip), vehicle: saline", "result": "136 % of control [9 of 10 alive]"}, {"measurement": "survivor count", "setting": "[2]", "result": "0 of 10"}]}
{"smiles": "CCc1c(Cl)nc(N)nc1Nc1ccccc1C", "values": [{"measurement": "T/C", "setting": "dose: 31.0 mg/kg/injection, schedule: Q01DX011 (ip), vehicle: methylcellulose (MC)", "result": "125 % of control"}]}
{"smiles": "CCCC(=O)OCC1OC(n2cnc3c(=S)nc(N)[nH]c32)C(OC(=O)CCC)C1OC(=O)CCC", "note": "(stereo unspecified)", "values": [{"measurement": "survivor count", "setting": "dose: 24.0 mg/kg/injection, schedule: Q01DX011 (ip), vehicle: saline", "result": "3 of 10"}, {"measurement": "survivor count", "setting": "dose: 35.0 mg/kg/injection, schedule: Q01DX011 (ip), vehicle: saline", "result": "3 of 10"}, {"measurement": "survivor count", "setting": "dose: 48.0 mg/kg/injection, schedule: Q01DX011 (ip), vehicle: carboxymethylcellulose (CMC)", "result": "0 of 10"}, {"measurement": "survivor count", "setting": "[1]", "result": "0 of 10"}, {"measurement": "survivor count", "setting": "dose: 80.0 mg/kg/injection, schedule: Q01DX011 (ip), vehicle: saline", "result": "0 of 10"}]}
{"smiles": "O=S1(=O)CCCO1", "values": [{"measurement": "survivor count", "setting": "dose: 160.0 mg/kg/injection, schedule: Q01DX011 (ip), vehicle: carboxymethylcellulose (CMC)", "result": "1 of 10"}]}
{"smiles": "Cc1ccc(N=Nc2c(S(=O)(=O)O)cc3cc(NC(=O)Nc4ccc5c(O)c(N=Nc6ccc7cc(S(=O)(=O)O)ccc7c6)c(S(=O)(=O)O)cc5c4)ccc3c2O)cc1", "values": [{"measurement": "survivor count", "setting": "dose: 65.0 mg/kg/injection, schedule: Q01DX011 (ip), vehicle: methylcellulose (MC)", "result": "2 of 10"}, {"measurement": "survivor count", "setting": "dose: 100.0 mg/kg/injection, schedule: Q01DX011 (ip), vehicle: methylcellulose (MC)", "result": "5 of 10"}, {"measurement": "survivor count", "setting": "dose: 150.0 mg/kg/injection, schedule: Q01DX011 (ip), vehicle: methylcellulose (MC)", "result": "5 of 10"}]}
{"smiles": "COc1ccc2c3c([nH]c2c1)[C@H]1C[C@H]2[C@H](C[C@@H](O)[C@H](OC)[C@H]2CO)CN1CC3", "values": [{"measurement": "T/C", "setting": "dose: 0.25 mg/kg/injection, schedule: Q01DX011 (ip), vehicle: saline", "result": "132 % of control"}]}
{"smiles": "CCCN(C)/N=N/c1nc[nH]c1C(N)=O", "values": [{"measurement": "survivor count", "setting": "[3]", "result": "5 of 10"}, {"measurement": "survivor count", "setting": "dose: 60.0 mg/kg/injection, schedule: Q01DX011 (ip), vehicle: carboxymethylcellulose (CMC)", "result": "2 of 9"}]}
{"smiles": "Oc1ccc2ccccc2c1N=Nc1ccc(Cl)cc1", "values": [{"measurement": "T/C", "setting": "[4]", "result": "25, 39, 75 % of control [9 of 10 alive]"}, {"measurement": "survivor count", "setting": "[4]", "result": "0 of 10"}, {"measurement": "survivor count", "setting": "[5]", "result": "0 of 10"}, {"measurement": "survivor count", "setting": "[6]", "result": "0 of 10"}, {"measurement": "survivor count", "setting": "dose: 400.0 mg/kg/injection, schedule: Q01DX011 (ip), vehicle: other", "result": "0 of 10"}, {"measurement": "survivor count", "setting": "dose: 800.0 mg/kg/injection, schedule: Q01DX011 (ip), vehicle: other", "result": "0 of 10"}, {"measurement": "survivor count", "setting": "dose: 1600.0 mg/kg/injection, schedule: Q01DX011 (ip), vehicle: other", "result": "0 of 10"}]}
{"smiles": "OCC1OC(n2cnc3c(I)ncnc32)C(O)C1O", "note": "(stereo unspecified)", "values": [{"measurement": "survivor count", "setting": "dose: 300.0 mg/kg/injection, schedule: Q01DX011 (ip), vehicle: saline", "result": "4 of 10"}, {"measurement": "survivor count", "setting": "[2]", "result": "5 of 10"}]}
{"smiles": "C=CC1CN2CCC1CC2C(O)c1ccnc2ccc(OC)cc12", "note": "(stereo unspecified)", "values": [{"measurement": "T/C", "setting": "dose: 115.85 mg/kg/injection, schedule: Q01DX011 (ip), vehicle: carboxymethylcellulose (CMC)", "result": "135 % of control"}, {"measurement": "survivor count", "setting": "dose: 231.7 mg/kg/injection, schedule: Q01DX011 (ip), vehicle: carboxymethylcellulose (CMC)", "result": "2 of 10"}]}
{"smiles": "Cc1n[nH]c(=O)[nH]c1=O", "values": [{"measurement": "T/C", "setting": "[5]", "result": "147 % of control"}, {"measurement": "T/C", "setting": "[6]", "result": "134 % of control"}]}
{"smiles": "CC1CN1P(=S)(N1CCCCC1)N1CC1C", "note": "(stereo unspecified)", "values": [{"measurement": "survivor count", "setting": "dose: 450.0 mg/kg/injection, schedule: Q01DX011 (ip), vehicle: carboxymethylcellulose (CMC)", "result": "0 of 10"}]}
{"smiles": "Cc1ccccc1-c1nc2c(N)nc(N)nc2nc1N", "values": [{"measurement": "T/C", "setting": "dose: 25.25 mg/kg/injection, schedule: Q01DX011 (ip), vehicle: carboxymethylcellulose (CMC)", "result": "127 % of control"}, {"measurement": "survivor count", "setting": "dose: 450.0 mg/kg/injection, schedule: Q01DX011 (ip), vehicle: methylcellulose (MC)", "result": "6 of 10"}]}
{"smiles": "CC(=O)Nc1c(Cl)c(Cl)c2c(c1Cl)Cc1cc(Br)ccc1-2", "values": [{"measurement": "survivor count", "setting": "[3]", "result": "6 of 10"}, {"measurement": "survivor count", "setting": "dose: 100.0 mg/kg/injection, schedule: Q01DX011 (ip), vehicle: carboxymethylcellulose (CMC)", "result": "4 of 10"}]}
{"smiles": "C/C(=N\\NC(=O)c1ccncc1)c1ccc(Cl)cc1Cl", "values": [{"measurement": "survivor count", "setting": "dose: 120.0 mg/kg/injection, schedule: Q01DX011 (ip), vehicle: methylcellulose (MC)", "result": "3 of 10"}]}
